Experimental data: PubChem BioAssay AID504467 (National Center for Advancing Translational Sciences (NCATS), 2011)
Among all 330,000 compounds or so, about 7,700 (2.3%) were called active. Inconclusive results, whose numbers are uncertain, are shown with a selection of clear calls. Calls come from the whole dose curve; as a rule, active = well fitted inhibition curve with a large enough effect; inconclusive = small, poorly fitted or top-dose-only effect, or effect the other way; inactive = flat fitted curve, though single readings scatter. Potencies beside an inconclusive call are fits to weak or partial responses and may not hold up.

Test: qHTS screen for small molecules that inhibit ELG1-dependent DNA repair in human embryonic kidney (HEK293T) cells expressing luciferase-tagged ELG1; note: nearly all actives have a fitted effect of over 55% in size
Details: HEK293T ELG1-luciferase reporter, luminescence, 16 h, DNA damage induced by 5-fluorouridine; activity change, negative = inhibition: at 46.1 µM (top of the series)
Summary of the method: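 5-Fluorouridine DNA damage + compound/DMSO, 2,000 cells/well, 16 h, 37 °C/5% CO2. ONE-Glo, 30 min RT, luminescence. Readout = decrease in reporter signal.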
% is set by controls: 0 for no effect and ±100 for the full control effect; potency is the fitted concentration of half-maximal effect.

Structure (SMILES)	Potency	activity change, negative = inhibition
CC(=O)Nc1ccc(S(=O)(=O)NCc2cccnc2)cc1	inconclusive: 5.8 µM [activator, full curve, poor fit]	–
CC/C(=N\NC(=O)OC)c1ccc(OC(F)F)cc1	–	inactive: 23.4%
Cc1ccc(S(=O)(=O)CC(=O)Nc2nc(-c3ccccc3)cs2)cc1	inconclusive: 18.4 µM [inhibitor, single point]	–
COC(=O)[C@]1(C)N[C@H](CN(C)C(=O)Nc2ccc(OC)cc2)[C@@H]2C(=O)N(C)C(=O)[C@@H]21	inconclusive: 16.4 µM [activator, partial curve, poor fit]	–
O=C1Cn2c(nc3ccccc32)-c2ccccc2N1	inconclusive: 0.0731 µM [inhibitor, partial curve, poor fit]	–
O=C(Nc1cccc(NC(=O)c2sc3ccccc3c2Cl)c1)c1ccco1	inconclusive: 29.1 µM [inhibitor, single point]	–
O=C(Nc1ccc(F)cc1)c1nc[nH]c1C(=O)Nc1ccc([N+](=O)[O-])cc1	–	inactive: 4.5%
O=C(Nc1cccc(F)c1)C1C2C=CC3(CN(CCCN4CCOCC4)C(=O)C13)O2 (centres undefined)	inconclusive: 23.1 µM [activator, partial curve, poor fit]	–
CCOc1ccc(NC(=O)CN(C)C(=O)c2ccccc2OCc2cccc(C)c2)cc1OCC	active: 10.3 µM	–
Cc1ccc2cc(C(c3nnnn3C3CCCC3)N(Cc3ccco3)Cc3cccs3)c(=O)[nH]c2c1 (centres undefined)	inconclusive: 32.6 µM [inhibitor, single point]	–
Cn1nnc(NCc2cc(Br)ccc2OCc2ccccc2F)n1	inconclusive: 25.9 µM [inhibitor, single point]	–
CN(C)CCCNC(=O)/C=C/c1ccc2c(c1)OCO2	inconclusive: 32.6 µM [inhibitor, partial curve, poor fit]	–
Cc1cccc(NC(=O)C2CCN(S(=O)(=O)c3ccc4ccccc4c3)CC2)n1	–	inactive: -8.84%
CCc1ccccc1N(C(C)=O)c1nc(CCl)cs1	inconclusive: 5.17 µM [inhibitor, partial curve, poor fit]	–
CCOC(=O)C1(CCOc2ccccc2)CCN(Cc2cccc(-n3cccn3)c2)CC1	inconclusive: 29.1 µM [inhibitor, single point]	–
CCCOC(=O)c1cc(-c2ccc(C=O)o2)ccc1Cl	inconclusive: 16.4 µM [activator, single point]	–
CC(=O)CCc1ccc(OCCCCn2cncn2)cc1	inconclusive: 23.1 µM [activator, partial curve]	–
Cc1cc([N+](=O)[O-])nn1CCCC(=O)Nc1cc(Oc2ccc(F)cc2)cc([N+](=O)[O-])c1	inconclusive: 20.6 µM [inhibitor, single point]	–
CC(C)c1ccc(OCC(=O)NNC(=O)c2cnccn2)cc1	inconclusive: 4.11 µM [activator, full curve, poor fit]	–
CCOC(=O)c1sc(=NC(=O)c2ccc(OC)c(OC)c2)n(C)c1C	inconclusive: 29.1 µM [activator, partial curve, poor fit]	–
O=[N+]([O-])c1cccc(NC(=S)N2CCc3ccccc32)c1	active: 13 µM	–
Cc1cccc(N2CCN(C(=O)c3nn(C)c4c3CS(=O)(=O)c3ccccc3-4)CC2C)c1 (centres undefined)	inconclusive: 29.1 µM [inhibitor, single point]	–

Structure (SMILES)	Potency	activity change, negative = inhibition
CN(C)c1cccc(C(=O)NN2C(=O)NC3(CCCCC3)C2=O)c1	inconclusive: 16.4 µM [activator, partial curve]	–
COc1ccc(C)cc1S(=O)(=O)Nc1ccc2c(c1)OCCO2	inconclusive: 6.31 µM [activator, single point]	–
O=C(CNC(=O)c1ccc(Cl)c([N+](=O)[O-])c1)OCN1C(=O)c2ccccc2C1=O	–	inactive: 7.8%
COCCNC(=O)C(=O)N/N=C(\C)CC(=O)Nc1cccc(C(F)(F)F)c1	–	inactive: -11.8%
CC(C)Cn1c(N)c(C(=O)COC(=O)C2Cc3ccccc3CN2S(C)(=O)=O)c(=O)n(C)c1=O (centres undefined)	active: 9.2 µM	–
COc1ccc(C(=O)Nc2cccc(OC(=O)c3ccco3)c2)cc1	inconclusive: 7.3 µM [activator, partial curve]	–
CN(C)CCCNC(=O)C(=O)NCC1CCCO1 (centres undefined)	–	inactive: -10.8%
O=C(CSc1nc2ccccc2nc1SCC(=O)N1CCCCC1)N1CCCCC1	active: 16.4 µM	–
Cc1cnc(NC(=O)/C=C/c2ccc(Br)o2)s1	inconclusive: 10.3 µM [activator, partial curve]	–
CCCn1c(-c2cccs2)nc2ccccc21	inconclusive: 18.4 µM [inhibitor, partial curve, poor fit]	–
COCC(C)NCc1ccccc1C (centres undefined)	–	inactive: 7.25%
O=S(=O)(c1cccc2nsnc12)N1CCCC1	inconclusive: 0.58 µM [inhibitor, single point]	–
Cc1nnc(N/N=C/c2cccc(C(F)(F)F)c2)n1N	–	inactive: -4.74%
Cc1c(Cl)cccc1NC(=O)CSc1nnc(C)n1CC1CCCO1 (centres undefined)	inconclusive: 16.4 µM [activator, single point]	–
Cc1ccccc1Nc1nnc(SCc2cc(=O)n3ccsc3n2)s1	inconclusive: 20.6 µM [inhibitor, single point]	–
Cc1noc2ncnc(N3CCN(c4cccc(Cl)c4)CC3)c12	inconclusive: 9.2 µM [inhibitor, partial curve]	–
O=C(COC(=O)C1CC(=O)N(Cc2ccco2)C1)Nc1nc(-c2ccc(F)cc2)cs1 (centres undefined)	inconclusive: 18.3 µM [activator, partial curve]	–
C=CCOc1cccc(C(=O)N2CCCC(Nc3ccc4c(c3)OCCO4)C2)c1 (centres undefined)	–	inactive: -2.64%
CCOC(=O)Cn1nnnc1C(CC)N(Cc1ccccc1)Cc1cc2cc(C)ccc2[nH]c1=O (centres undefined)	–	inactive: 2.26%
Cc1ccccc1C(=O)NCC(=O)NNC(=S)NC(=O)c1ccccc1C	–	inactive: -10.5%
C[C@@H]1CC=C[C@H]2[C@H]1C(=O)N(Cc1ccccc1)[C@H]2c1ccc(F)c(-c2ccc(N(C)C)cc2)c1	inconclusive: 2.59 µM [inhibitor, partial curve, poor fit]	–
CCC(C)(C)C1CCC2(CC1)NC(=O)N(CC(=O)N(C)CC(=O)Nc1ccccc1C(F)(F)F)C2=O (centres undefined)	–	inactive: -1.54%

An excerpt from above in order of count of non-hydrogen atoms, falling.
Structure (SMILES)	Potency	activity change, negative = inhibition
CC(C)Cn1c(N)c(C(=O)COC(=O)C2Cc3ccccc3CN2S(C)(=O)=O)c(=O)n(C)c1=O (centres undefined)	active: 9.2 µM	–
Cc1ccccc1Nc1nnc(SCc2cc(=O)n3ccsc3n2)s1	inconclusive: 20.6 µM [inhibitor, single point]	–
CN(C)c1cccc(C(=O)NN2C(=O)NC3(CCCCC3)C2=O)c1	inconclusive: 16.4 µM [activator, partial curve]	–
